These are yes or no findings as the source states them, for the method shown. Some binding calls cover weakened binding; strength is not graded here.
T1: hCTLA-4 protein (human, UniProt P16410 36-161)
T1 construct: human CTLA-4 protein, soluble recombinant protein; The MST methods speak of a 'Red-NHS647 dye-labelled protein' without naming it; also called human CTLA-4 protein
T1 sequence (looked up): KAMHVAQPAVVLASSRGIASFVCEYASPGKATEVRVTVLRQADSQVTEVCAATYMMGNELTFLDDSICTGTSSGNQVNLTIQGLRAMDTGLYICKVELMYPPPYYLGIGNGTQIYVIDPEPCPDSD

By UniProt entry, the sequences of proteins in these tests, tags left out. Residues count along the entry.
UniProt P09793, residues 36-223: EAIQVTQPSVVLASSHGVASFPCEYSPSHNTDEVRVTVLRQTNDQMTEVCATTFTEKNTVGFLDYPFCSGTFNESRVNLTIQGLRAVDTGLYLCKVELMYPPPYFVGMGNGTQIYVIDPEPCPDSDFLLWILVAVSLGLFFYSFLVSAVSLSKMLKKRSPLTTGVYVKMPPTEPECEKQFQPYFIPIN


Columns and labels:
[1] = target: mCTLA-4 on CHO-K1/mCTLA-4 cells (mouse) (UniProt P09793); experiment: flow cytometry on cells; biotin-labelled peptides at 200 μM incubated with CHO-K1/hCTLA-4, CHO-K1/mCTLA-4 or CHO-K1 cells for 30 min at 4 °C, detected with SA-PE; only the binder purified
[2] = target: hCTLA-4 on CHO-K1/hCTLA-4 cells (human) (UniProt P16410); experiment: as above
[3] = target: T1, hCTLA-4 protein; experiment: condition: peptides first diluted to 400 μmol/L, mixed with an equal volume of labelled protein; MST; Monolith NT.115; peptides first diluted to 400 μmol/L in MST buffer, 16 twofold dilutions; equal volumes of Red-NHS647 dye-labelled protein and peptide, room temperature 5 min, standard capillaries; both purified

| Binder | binding [1] | binding [2] | binding [3] |
| --- | --- | --- | --- |
| WGHSHFSHWKGRGGGK (GGGK-biotin at carboxyl terminal) [LC4-biotin] | binds | binds |  |
| LDRPSSLAHLASGGGK (GGGK-biotin at carboxyl terminal) [LC7-biotin] |  | binds |  |
| RHHSSNPRDTAPGGGK (GGGK-biotin at carboxyl terminal) [LC8-biotin] |  | binds |  |
| RWKDTAYALTNN [LC1] |  |  | no binding |
| HHLRIPYALDQT [LC2] |  |  | no binding |
| SHRWQVWSRDRA [LC5] |  |  | no binding |
| ASANDNRLRYTY [LC6] |  |  | no binding |
